Measured values published in the supplement of paper PMC9015667.
Counter-ions that a name gives are not always drawn. Some of the results follow. Many values rest on one well or one pass, so single values are uncertain.

Test system: M238R (matched melanoma line resistant to BRAF inhibitors)
Test: reduction in cell viability relative to untreated/vehicle; higher = more growth inhibition
Settings: 200 nM; 72 h

SMILES	reduction in cell viability
O=c1[nH]c(=O)n([C@H]2C[C@H](O)[C@@H](CO)O2)cc1C(F)(F)F [Trifluridine]	< 0%
C[C@@H](Oc1cc(-n2cnc3ccc(CN4CCN(C)CC4)cc32)sc1C(N)=O)c1ccccc1C(F)(F)F	44.1%
Cc1ccc(S(=O)(=O)N[C@@H](Cc2ccccc2)C(=O)CCl)cc1	< 0%
Cn1cc(C2=C(c3ccc(Cl)cc3Cl)C(=O)NC2=O)c2ccccc21	< 0%
CCc1c2c(nc3ccc(O)cc13)-c1cc3c(c(=O)n1C2)COC(=O)[C@]3(O)CC	49.3%
CCC1(c2ccccc2)C(=O)NCNC1=O [Primidone]	< 0%
O=C1CN2Cc3c(ccc(Cl)c3Cl)N=C2N1 [anagrelide]	< 0%
O=NN(CCCl)C(=O)NC1CCCCC1 [Lomustine]	< 0%
COC(=O)Nc1nc2cc(C(=O)c3ccccc3)ccc2[nH]1 [Mebendazole]	42.9%
O=C(c1ccc(F)c(F)c1Nc1ccc(I)cc1F)N1CC(O)([C@@H]2CCCCN2)C1	< 0%
NC(=O)c1ccc(I)c([N+](=O)[O-])c1 [Iniparib]	< 0%
CCn1c(=O)c2c(nc(/C=C/c3ccc(OC)c(OC)c3)n2C)n(CC)c1=O [Istradefylline]	< 0%
Cc1ccc2c(=O)c3cccc(CC(=O)O)c3oc2c1C [Vadimezan]	< 0%
Cc1cc(C(C)Nc2ccccc2)c2nc(N3CCOCC3)cc(=O)n2c1 (centres undefined)	13.6%
O=NN(CCCl)C(=O)NCCCl [Carmustine]	< 0%
NC(=O)[C@@H](CCC(F)(F)F)N(Cc1ccc(-c2ncon2)cc1F)S(=O)(=O)c1ccc(Cl)cc1 [Avagacestat]	< 0%
CNCCCC12CCC(c3ccccc31)c1ccccc12 [Maprotiline hydrochloride]	< 0%
COc1ccc(/C=C\c2cc(OC)c(OC)c(OC)c2)cc1NC(=O)[C@@H](N)CO [Ombrabulin]	53.4%
COc1ccc(-c2nc(N3CCOCC3)c3sc(CN(C)c4ncc(C(=O)NO)cn4)cc3n2)cn1	< 0%
Cc1cn2cc(C(=O)N(C)CCO)cc(N[C@@H]3CCOc4cccc(C)c43)c2n1	< 0%

SMILES	reduction in cell viability
CC1(C)NC(=O)N(c2ccc([N+](=O)[O-])c(C(F)(F)F)c2)C1=O [Nilutamide]	< 0%
COc1ccc(OC)c(-c2nnc3ccc(-c4ccc(OC)c(O[C@@H]5CCOC5)c4)nn23)c1	< 0%
O=c1ccn([C@@H]2O[C@H](CO)[C@@H](O)[C@H]2O)c(=O)[nH]1 [Uridine]	< 0%
Cc1ccc(C(=O)Nc2cccc(C(F)(F)F)c2)cc1Nc1nc(-c2cccnc2)nc2c1cnn2C	< 0%
Oc1cc(O)c(Cl)cn1 [Gimeracil]	< 0%
C[C@H]1O[C@@H](O[C@H]2[C@@H](O)C[C@H](O[C@H]3[C@@H](O)C[C@H](O[C@H]4CC[C@@]5(C)[C@H](CC[C@@H]6[C@@H]5C[C@@H](O)[C@]5(C)[C@@H](C7=CC(=O)OC7)CC[C@]65O)C4)O[C@@H]3C)O[C@@H]2C)C[C@H](O)[C@@H]1O [Digoxin]	84.2%
COc1cc(C(=O)NS(=O)(=O)c2ccccc2C)ccc1Cc1cn(C)c2ccc(NC(=O)OC3CCCC3)cc12 [Zafirlukast]	< 0%
Cn1cnc2c(F)c(Nc3ccc(Br)cc3F)c(C(=O)NOCCO)cc21	< 0%
O=C(/C=C/c1cccc(S(=O)(=O)Nc2ccccc2)c1)NO [Belinostat]	< 0%
CN(C)c1nc(N(C)C)nc(N(C)C)n1 [Altretamine]	< 0%
COc1ccc2ccc(=O)oc2c1CC=C(C)C [Ostol]	< 0%
CN1CC(=O)N2[C@H](c3ccc4c(c3)OCO4)c3[nH]c4ccccc4c3C[C@@H]2C1=O [Tadalafil]	< 0%
OC(c1cc(C(F)(F)F)nc2c(C(F)(F)F)cccc12)C1CCCCN1 (centres undefined) [Mefloquine]	< 0%
CN1CCN(c2ccc3nc(-c4c(N)c5c(F)cccc5[nH]c4=O)[nH]c3c2)CC1 [Dovitinib]	13.9%
c1ccc([C@H]2CN3CCSC3=N2)cc1 [L-tetramisol]	< 0%
COc1ncc(-c2ccc3nccc(-c4ccnnc4)c3c2)cc1NS(=O)(=O)c1ccc(F)cc1F	46.4%
CNC(=O)c1ccc2cc([C@@]3(O)CCn4cncc43)ccc2c1 [Orteronel]	< 0%
O=c1c(O)c(-c2ccc(O)cc2)oc2cc(O)cc(O)c12 [Kaempferol]	< 0%
Clc1ccc(COC(Cn2ccnc2)c2ccc(Cl)cc2Cl)cc1 (centres undefined) [Econazole nitrate]	< 0%

Gathered by group: the entries above with a thiophene ring, fused or not.
SMILES	reduction in cell viability
C[C@@H](Oc1cc(-n2cnc3ccc(CN4CCN(C)CC4)cc32)sc1C(N)=O)c1ccccc1C(F)(F)F	44.1%
COc1ccc(-c2nc(N3CCOCC3)c3sc(CN(C)c4ncc(C(=O)NO)cn4)cc3n2)cn1	< 0%
